Results are given in words; binding and its absence hold for the method and conditions named. Binding seen in cells or lysates may run through a third protein.
Target: murine double minute chromosome 2 (MDM2) oncoprotein, endogenous in A375 cells (human (endogenous in A375)), Q00987
Assay: co-IP; A375 lysate, untransfected or transfected with untagged MDM2; MDM2 (antibodies 2A10, 2A9, 4B2, 3G5, SMP14) or CK1α (antibody C-19) immunoprecipitated on Protein G Sepharose; Western blot
Settings: remark: other sources report otherwise

B1: CK1δ, endogenous in A375 cells, P48730 1-415 (protein)
chain: MELRVGNRYRLGRKIGSGSFGDIYLGTDIAAGEEVAIKLECVKTKHPQLHIESKIYKMMQGGVGIPTIRWCGAEGDYNVMVMELLGPSLEDLFNFCSRKFSLKTVLLLADQMISRIEYIHSKNFIHRDVKPDNFLMGLGKKGNLVYIIDFGLAKKYRDARTHQHIPYRENKNLTGTARYASINTHLGIEQSRRDDLESLGYVLMYFNLGSLPWQGLKAATKRQKYERISEKKMSTPIEVLCKGYPSEFATYLNFCRSLRFDDKPDYSYLRQLFRNLFHRQGFSYDYVFDWNMLKFGASRAADDAERERRDREERLRHSRNPATRGLPSTASGRLRGTQEVAPPTPLTPTSHTANTSPRPVSGMERERKVSMRLHRGAPVNISSSDLTGRQDTSRMSTSQIPGRVASSGLQSVVHR
binding: no binding

B2: CK1ε, endogenous in A375 cells, P49674 1-416 (protein)
chain: MELRVGNKYRLGRKIGSGSFGDIYLGANIASGEEVAIKLECVKTKHPQLHIESKFYKMMQGGVGIPSIKWCGAEGDYNVMVMELLGPSLEDLFNFCSRKFSLKTVLLLADQMISRIEYIHSKNFIHRDVKPDNFLMGLGKKGNLVYIIDFGLAKKYRDARTHQHIPYRENKNLTGTARYASINTHLGIEQSRRDDLESLGYVLMYFNLGSLPWQGLKAATKRQKYERISEKKMSTPIEVLCKGYPSEFSTYLNFCRSLRFDDKPDYSYLRQLFRNLFHRQGFSYDYVFDWNMLKFGAARNPEDVDRERREHEREERMGQLRGSATRALPPGPPTGATANRLRSAAEPVASTPASRIQPAGNTSPRAISRVDRERKVSMRLHRGAPANVSSSDLTGRQEVSRIPASQTSVPFDHLGK
binding: no binding

Source: paper PMC3423359
